Results deposited as PubChem BioAssay AID686937 (Drosophila RNAi Screening Center, 2013)
Purpose: 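Genes whose loss weakens secretory pathway function in fly cells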 (primary screen). Cells: Drosophila S2 cells expressing secreted horseradish peroxidase. Reagents: long dsRNA against Drosophila genes. Time to read-out: about 5.5 days (5 days dsRNA, then 12 h reporter induction). Treatment: reporter expression induced after 5 days of dsRNA, read 12 h later; inducer not stated. Read-out: 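After 5 days of dsRNA and 12 h of reporter induction, medium peroxidase read by chemiluminescence and scored as per-plate z-score; higher values mean more reporter released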. Scale: z-score: higher = more reporter secreted into medium.
In all, the deposit lists about 23,000 reagents; below is an unselected part of those with a known target gene and a result. 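Reduced-secretion tags in replicate 1 do not always agree with the z-scores; no criterion for assigning the tags was given.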 The numbers tell different reagents against one gene apart. No sequences are given here. Not given: the amount of reagent.

target gene	dsRNA no.	z-score, replicate 1	z-score, replicate 2	z-score, replicate 3	z-score, replicate 4	phenotype, replicate 1
Dph4	1	0.11	0.07			
CG13171	1	0.42	0.19			
Odc1	1	0.27	0.35			
CG5653	1	0.3	0.3			
Gapvd1	1	0	-0.15			
CG16786	1	0.27	0.46			
CG31627	1	-0.18	0.21			
CG42697	1	0.41	-0.08			
slim	1	0.31	0.41			
CG12926	1	-3.4	0.16	0.22	-8.92	
CG12926	2	0.37	0.13			
CG31778	1	0.39	0.21			
c(3)G	1	-0.53	-0.06			
SerT	1	0.52	0.24			
alphaTub67C	1	-1.37	-2.02			reduced secretion
Mes2	1	0.3	0.38			
Mes2	2	-0.17	0.5	0.14	0.03	
ppk24	1	-0.13	0.14			

In a second layout: entries from further up
SerT → z-score, replicate 1: 0.52; z-score, replicate 2: 0.24
alphaTub67C → z-score, replicate 1: -1.37; z-score, replicate 2: -2.02; phenotype, replicate 1: reduced secretion
Mes2 #1 → z-score, replicate 1: 0.3; z-score, replicate 2: 0.38
Mes2 #2 → z-score, replicate 1: -0.17; z-score, replicate 2: 0.5; z-score, replicate 3: 0.14; z-score, replicate 4: 0.03
ppk24 → z-score, replicate 1: -0.13; z-score, replicate 2: 0.14

Additional results follow:
target gene	dsRNA no.	z-score, replicate 1	z-score, replicate 2	z-score, replicate 3	z-score, replicate 4	phenotype, replicate 1
phr6-4	1	1.13	0.65			
hh	1	0.58	0.48			
CG42544	1	-0.28	0.26			
brk	1	-1	-0.52			
comm	1	0.53	0.32			
dia	1	-0.2	-0.13			
Art8	1	-0.3	-0.03			
CG32713	1	-0.37	0.33			
CG8388	1	-0.01	0.24			
CG15025	1	0.31	0.38			
CG9222	1	0.05	0.38			
BicC	1	0.64	0.33			
hoip	1	-6.47	-6.17			reduced secretion
CG14778	1	0.09	0.08			
CG31674	1	0.55	0.02			
